Assay results published in PMC3913574.
No constants are given. Whether binding was seen depends on the method and setting. Binding seen in cells or lysates may run through a third protein. Some binding calls cover weakened binding; strength is not graded here. Sequences can lack the tags named with a protein.

Molecular target: T1, CADM1 (Cell adhesion molecule 1), endogenous in Caco-2 cells (human (endogenous in Caco-2)) (UniProt Q9BY67)
T1 sequence: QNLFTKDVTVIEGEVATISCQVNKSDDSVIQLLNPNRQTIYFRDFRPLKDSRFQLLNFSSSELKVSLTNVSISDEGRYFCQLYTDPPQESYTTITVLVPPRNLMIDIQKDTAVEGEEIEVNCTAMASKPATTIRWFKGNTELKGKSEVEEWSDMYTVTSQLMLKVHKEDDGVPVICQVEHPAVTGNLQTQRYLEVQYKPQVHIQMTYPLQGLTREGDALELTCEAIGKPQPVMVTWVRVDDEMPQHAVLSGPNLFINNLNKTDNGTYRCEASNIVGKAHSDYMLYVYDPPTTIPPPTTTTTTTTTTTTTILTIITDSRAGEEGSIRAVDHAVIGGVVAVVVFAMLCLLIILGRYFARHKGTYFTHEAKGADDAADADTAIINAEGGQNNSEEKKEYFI
Test: co-IP; lysates of Caco-2 cells transiently expressing MPP3-HA, immunoprecipitated with anti-CADM1 or anti-Dlg antibodies (control rabbit IgG); Western blotting with antibodies against HA, Dlg, p85 and CADM1

- binding: binds
B1: MPP3-HA (protein, UniProt Q13368 1-585)
chain: MPVLSEDSGLHETLALLTSQLRPDSNHKEEMGFLRDVFSEKSLSYLMKIHEKLRYYERQSPTPVLHSAVALAEDVMEELQAASVHSDERELLQLLSTPHLRAVLMVHDTVAQKNFDPVLPPLPDNIDEDFDEESVKIVRLVKNKEPLGATIRRDEHSGAVVVARIMRGGAADRSGLVHVGDELREVNGIAVLHKRPDEISQILAQSQGSITLKIIPATQEEDRLKESKVFMRALFHYNPREDRAIPCQEAGLPFQRRQVLEVVSQDDPTWWQAKRVGDTNLRAGLIPSKGFQERRLSYRRAAGTLPSPQSLRKPPYDQPCDKETCDCEGYLKGHYVAGLRRSFRLGCRERLGGSQEGKMSSGAESPELLTYEEVARYQHQPGERPRLVVLIGSLGARLHELKQKVVAENPQHFGVAVPHTTRPRKSHEKEGVEYHFVSKQAFEADLHHNKFLEHGEYKENLYGTSLEAIQAVMAKNKVCLVDVEPEALKQLRTSEFKPYIIFVKPAIQEKRKTPPMSPACEDTAAPFDEQQQEMAASAAFIDRHYGHLVDAVLVKEDLQGAYSQLKVVLEKLSKDTHWVPVSWVR
